Paper PMC13189361
For at least one entry, the source does not settle the construct or the ends of the probe. Weaker means in comparison with the reference protein, sequence or condition of that experiment. Protein sequences can lack the tags named with them. At least one verdict rests on a figure or table, not on a statement of the authors.

Each sequence was assayed against T1, MtrA (Streptomyces venezuelae NRRL B-65442) (UniProt A0ABZ1NSU6) (assay: SPR (ReDCaT)). Settings: Biacore 8K+, HBS-EP+ buffer, 60 s contact and 60 s dissociation, pH and temperature not stated, recombinant protein, protein details: 6xHis (pETDuet MCS1).
T1 sequence (looked up, limits assumed): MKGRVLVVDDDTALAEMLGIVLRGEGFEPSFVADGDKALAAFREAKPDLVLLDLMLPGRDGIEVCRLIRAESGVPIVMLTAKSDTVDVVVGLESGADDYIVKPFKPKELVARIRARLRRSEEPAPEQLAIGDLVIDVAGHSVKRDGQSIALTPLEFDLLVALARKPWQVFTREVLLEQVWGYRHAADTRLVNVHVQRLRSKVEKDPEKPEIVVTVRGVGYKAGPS

Sequence | binding result
ACTCATTGCGAATCTAGCCACAGACACCGCGAAAAGGGAA / TTCCCTTTTCGCGGTGTCTGTGGCTAGATTCGCAATGAGTCCTACCCTACGTCCTCCTGC [bldM_6] | binds
CCCCGCCGGTCCGGGTCGGTACACCTACTGTCTAAGTAGA / TCTACTTAGACAGTAGGTGTACCGACCCGGACCGGCGGGGCCTACCCTACGTCCTCCTGC [bldM_4] | binds
CCCTCACCCCCCACCCCTCACTCCTGATCCCCGCGCGCTC / GAGCGCGCGGGGATCAGGAGTGAGGGGTGGGGGGTGAGGGCCTACCCTACGTCCTCCTGC [Binding_site_C4G] | binds more weakly
CCCTCACCCCCCACCCCTCACTCGTGTTCCCCGCGCGCTC / GAGCGCGCGGGGAACACGAGTGAGGGGTGGGGGGTGAGGGCCTACCCTACGTCCTCCTGC [Binding_site_T1A] | binds more weakly
GAGTTGACAGGTTCGTACACCCGAACCCATATGTTTTCAG / CTGAAAACATATGGGTTCGGGTGTACGAACCTGTCAACTCCCTACCCTACGTCCTCCTGC [adpA_4] | binds
GCGCCGACGGGGCCCGCTCCTCGTGGAGTTGACAGGTTCG / CGAACCTGTCAACTCCACGAGGAGCGGGCCCCGTCGGCGCCCTACCCTACGTCCTCCTGC [adpA_3] | binds
GGGGGAGAAACCGGTATCAATCGGGGCGCCGACGGGGCCC / GGGCCCCGTCGGCGCCCCGATTGATACCGGTTTCTCCCCCCCTACCCTACGTCCTCCTGC [adpA_2] | binds
TACTGTCTAAGTAGATGTAAATATGACTCATTGCGAATCT / AGATTCGCAATGAGTCATATTTACATCTACTTAGACAGTACCTACCCTACGTCCTCCTGC [bldM_5] | binds
TCTGTACGCGCCCCCTCACGTAGAGTGCCGAAGGGTGCCG / CGGCACCCTTCGGCACTCTACGTGAGGGGGCGCGTACAGACCTACCCTACGTCCTCCTGC [bldM_10] | binds
TTGCGCTTGTCCCCTTGAAACCGTGTCGAACGGATAGGTG / CACCTATCCGTTCGACACGGTTTCAAGGGGACAAGCGCAACCTACCCTACGTCCTCCTGC [bldM_1] | binds
